This is one part of the list. The main result of the screen is listed elsewhere. These columns were measured beside it and carry no call. Most of these compounds were active or inconclusive in the main read-out, so they are no random draw.
Assay: inhibitors of insulin promoter-driven GFP, primary screen, imaging, TRM-6 cells (human fetal islet line), eGFP reporter, cell count (AID 1273;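 further: cells exposed to compound for 48 h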)
Details: measured here: cell count, toxicity, at 2 µM, reporter expression induced with tamoxifen

Compound | normalized cell count
O=C1Nc2cc3c(cc2Sc2ccccc21)OCCO3 | 75.9%
Cc1nn(-c2ccccc2)c(C)c1N | 62%
COC(=O)Nc1ccc(S(=O)(=O)Nc2ccc(O)cc2)cc1 | 54.7%
CC(C)c1ccccc1NC(=O)Cn1c(-c2ccccc2Cl)nc2ccccc21 | 87.2%
C#CCNC(=O)/C=C/c1ccc(C)cc1 | 91.7%
C=CCNc1ncnc2c1[nH]c1ccc(C)cc12 | 146%
O=C(CSc1nnc(-c2ccco2)n1-c1ccccc1)NCc1ccco1 | 41.2%
CCOc1ccnc(OCC)c1Br | 58%
N#C/C(=C\c1ccc(-c2ccc(S(=O)(=O)N3CCOCC3)cc2)o1)C(=O)NC1CC1 | 108%
CCOC(=O)c1sc2nc(C)nc(NCCc3ccccn3)c2c1C | 80.8%
Cc1cccc(-n2ncc3c(Nc4c(C)n(C)n(-c5ccccc5)c4=O)ncnc32)c1 | 31.9%
CCc1nnc(NC(=O)CSc2nnc(Cc3ccccc3)n2-c2ccccc2)s1 | 89.9%
Cc1cc(C(=O)CCl)c(C)n1CCc1ccc(F)cc1 | 6.79%
CCOC(=O)N1CCN(C(=O)CSCC(=O)Nc2nc(-c3ccc(OC)cc3)cs2)CC1 | 122%
N#C/C(=C\c1cccs1)c1nc2ccccc2[nH]1 | 151%
CC12CC(c3ccccc3O1)C(C(=O)N1CCOCC1)C(=O)N2 (stereo unspecified) | 114%
CCCn1c(SCC(=O)Nc2nc(C)cs2)nnc1-c1cccnc1 | 139%
O=C(NCc1cccnc1)c1ccc(NC(=O)c2ccco2)cc1 | 55.7%
CC1(C)Cc2c(sc3c2C2=NCCN2C=N3)CS1 | 195%
CCN(CC)CCNC(CC(=O)Nc1ccc(Cl)cc1Cl)C(=O)O (stereo unspecified) | 90.4%
c1ccc2[nH]c(-c3cscn3)nc2c1 | 152%
S=C(Nc1ccccc1)N1CCN(c2ccc(N3CCOCC3)nn2)CC1 | 123%
Cc1nc2c(-c3ccccc3)c(C)nn2c(C)c1CCC(=O)N1CCOCC1 | 80.3%
COc1ccc(Br)c2oc(S)cc(=O)c12 | 102%

Compound | normalized cell count
O=C(NCc1cccc(Cl)c1)c1cnccn1 | 75.1%
COc1ccc(-c2nc3ncccn3c2Nc2ccc3c(c2)OCCO3)cc1 | 55.3%
CCN1CCN(c2cc(=O)n(Cc3ccc(F)cc3)c(=O)[nH]2)CC1 | 72.9%
COC(=O)CCc1c(C)[nH]c(C(=O)OCc2ccccc2)c1C | 102%
CCN(CC)c1cc2nc(C)n(Cc3ccccc3)c(=O)c2cc1NC(=O)C1CC1 | 139%
Clc1ccc2c(N/N=C/c3cccnc3)ccnc2c1 | 140%
Cc1c(N2C(=O)c3cccc4cccc(c34)C2=O)c(=O)n(-c2ccccc2)n1C | 40%
O=C(c1ccc(F)cc1)N1CCCCC(Sc2nnc3ccccn23)C1=O (stereo unspecified) | 108%
O=C1NC(=O)/C(=C\c2ccsc2)N1 | 64.2%
Brc1ccc2ncnc(NCc3ccccc3)c2c1 | 104%
Cc1ccccc1C(=O)N1CCN(c2ccccn2)CC1 | 123%
CCOC(=O)c1sc2nc3c(cc2c1N)COC(C)(C)C3 | 107%
O=C(Nc1ccc(Cl)cc1)Nc1ccc(N2CCOCC2)cc1 | 155%
CCC(=O)Nc1nonc1-c1nc2ccccc2n1Cc1ccccc1 | 103%
CCS(=O)(=O)n1nc(-c2ccc(Cl)cc2)nc1SC | 222%
CCc1c(O)cc2n(c1=O)-c1ccccc1C2(C)C | 81.6%
O=C(c1ccccc1)c1ccccc1C(=O)N1CCCC1 | 134%
CCc1cc2c(NCC3CCCO3)ncnc2s1 (stereo unspecified) | 108%
CCSCc1nc2ccccn2c1Br | 134%
c1ccc(C(Cc2nc(-c3ccncc3)no2)c2ccccc2)cc1 | 135%
Cc1[nH]n2c(=O)c3c(nc2c1-c1ccccc1)CCC3 | 119%
CCCCCC(=O)N/N=C(\C)c1ccc(Cl)cc1 | 0.42%
COc1cccc(Nc2c3c(nc4c(-c5ccccc5)c(C)nn24)CCC3)c1 | 138%
Cn1c(=O)cc(SCC(=O)N2CCN(c3ccccc3)CC2)c2ccccc21 | 105%

Compound | normalized cell count
COc1ccc(C(=O)N(Cc2ccc(N(C)C)cc2)C2CCS(=O)(=O)C2)cc1 (stereo unspecified) | 69.7%
NC(=O)[C@@H]1CCCCNc2c(I)cc([N+](=O)[O-])cc2C(=O)N[C@@H](CCC(=O)O)C(=O)N[C@@H](CO)C(=O)N1 | 119%
CCOc1ccc(-c2nc(C#N)c(N3CCN(CC)CC3)o2)cc1 | 156%
CC(C)(CCl)C(=O)Nc1ccc(C(F)(F)F)cc1 | 126%
CCCCCOC(=O)Nc1nnc(CCCCC)s1 | 81%
c1ccc(N2CCN(c3nc4ccccc4[nH]3)CC2)nc1 | 97.9%
COC(=O)c1cc(OC)c(OC)cc1NC(=O)CSc1nnnn1Cc1ccccc1 | 171%
CCN(CC)S(=O)(=O)c1cccc(-c2nnc(SCc3nc4ccccc4s3)o2)c1 | 95.4%
c1ccc2[nH]c(NC3=NCCC3)nc2c1 | 111%
Cc1ccc(/C=N/NC(=O)C2=NNC(c3ccccc3)(c3ccccc3)C2)c(O)c1 | 75.6%
O=C(CCc1nnc(Cc2ccc3c(c2)OCO3)o1)NCc1nc2ccccc2s1 | 51.1%
Cc1ccc(-n2[nH]c(C)c(/C=N/NC(=O)c3cccc([N+](=O)[O-])c3)c2=O)cc1C | 166%
Cc1ccccc1C(=O)NC1CCN(C(=O)N2CCOCC2)CC1 | 142%
CC1CN(c2nc(-c3ccccc3)nc3ccccc23)CC(C)O1 (stereo unspecified) | 44.1%
Cc1nnc(OC(C)C)c2nn(-c3ccccc3F)c(C)c12 | 157%
CC(C)(C)c1ccc(C(=O)Nc2cccc([N+](=O)[O-])c2)cc1 | 139%
Cc1noc(C)c1C(=O)NC(C)C1CCCO1 (stereo unspecified) | 36.8%
Cn1c(C(=O)c2ccccc2[N+](=O)[O-])nc2ccccc21 | 14.2%
Cc1nnc(SCC(=O)c2ccc(Br)cc2)s1 | 142%
N#CCSc1ccc(-c2nc3ccccc3[nH]2)cn1 | 88.2%
COC(=O)Cn1c(CN2CCC(Cc3ccccc3)CC2)nc2c1c(=O)n(C)c(=O)n2C | 67.3%
O=C(NC1CCCCCC1)c1cccc(COCC(F)(F)F)c1 | 139%
CCCCSc1nnc(-c2ccc(C)cc2)c2ccccc12 | 131%
CCOC(=O)N1CCN(C(=O)c2ccc(OC)c(S(=O)(=O)N3CCOCC3)c2)CC1 | 142%

Compound | normalized cell count
Cc1cccc(N/N=C(\C#N)S(=O)(=O)C(C)(C)C)c1 | 83.5%
Cc1ccc(N2CCN(S(=O)(=O)N3CCCCC3)CC2)cc1Cl | 86.3%
CCCc1nc2ccccc2n1CC(O)COc1ccc(NC(C)=O)cc1 (stereo unspecified) | 97.5%
O=C1Nc2ccccc2N(O)N1c1cc(-c2ccccc2)[nH]n1 | 92.3%
Cn1cccc1/C=N/NC(=O)c1ccn[nH]1 | 118%
Cc1occc1C(=O)Nc1nn[nH]n1 | 16.9%
COc1ccc([N+](=O)[O-])cc1NC(=O)COC(C)=O | 64%
CSc1cccc(NC(=O)COc2cccc3ccccc23)c1 | 48.3%
COc1cccc(CCC(=O)O)c1OC | 35.1%
CCN1CCN(c2cc(C)c3cc(NC(=O)Cc4ccc(OC)c(OC)c4)ccc3n2)CC1 | 159%
Nc1nc(CN2CCCCCC2)nc(Nc2ccccc2)n1 | 40%
N#CCCN(C(=O)COC(=O)c1cccc(S(=O)(=O)Nc2ccc([N+](=O)[O-])cc2)c1)c1ccccc1 | 103%
CCc1ccc2c(c1)c(N=NC1=NC(=O)CS1)c(O)n2C | 60.5%
CCCN(Cc1cc2cc(C)ccc2[nH]c1=O)S(C)(=O)=O | 88.8%
Cc1c(Cl)cccc1-n1c(SCC(=O)NCc2cccs2)nnc1-c1ccncc1 | 39%
COc1ccc(NC(=O)c2ccco2)cc1NC(=O)c1ccc(Br)o1 | 94.7%
CCOc1nc(NC(=O)NS(=O)(=O)Oc2cccc(Cl)c2)nc(-c2ccccc2)n1 | 59.2%
CCOC(=O)Nc1ccc2nc3n(c(=O)c2c1)CCCCC3 | 80.6%
Cc1ccc(O)c(-c2cc(-c3ccccc3C)[nH]n2)c1 | 118%
COc1ccc(NC(=O)c2nc3nc(C)cc(C(F)F)n3n2)cc1OC | 56.1%
CC(=O)Nc1ccc(NC(=O)c2ccc(CSc3ccccc3)o2)cc1 | 151%
Cc1c(Nc2cc(Cl)c3nonc3c2[N+](=O)[O-])c(=O)n(-c2ccccc2)n1C | 0%
Cn1c(=O)cc(SCC(=O)NCC2CCCO2)c2ccc(Cl)cc21 (stereo unspecified) | 105%
Cc1cc2[nH]c(=O)c3ccccc3n2n1 | 97.9%

Of the compounds above, three contain a COOH group.
Compound | normalized cell count
CCN(CC)CCNC(CC(=O)Nc1ccc(Cl)cc1Cl)C(=O)O (stereo unspecified) | 90.4%
NC(=O)[C@@H]1CCCCNc2c(I)cc([N+](=O)[O-])cc2C(=O)N[C@@H](CCC(=O)O)C(=O)N[C@@H](CO)C(=O)N1 | 119%
COc1cccc(CCC(=O)O)c1OC | 35.1%

Next entries:

Compound | normalized cell count
Nc1nc2c(c(=O)[nH]1)C(c1cccc3ccccc13)C1=C(N2)c2ccccc2C1=O (stereo unspecified) | 83.8%
O=C(O)c1cc(-c2ccco2)nc2ccc(Br)cc12 | 154%
CC1CCCC(C)N1/N=C/c1ccccc1C(=O)O (stereo unspecified) | 176%
COc1ccc2c(c1)-c1nc(/N=C/c3ccc(O)cc3)sc1CC2 | 144%
CCOC(=O)c1sc2nc(C)nc(Nc3ccc(OC)cc3)c2c1C | 101%
Cc1ccc(O)c(CC(C)C)n1 | 142%
O=C(NNC(=O)c1ccc(F)cc1F)c1ccc2c(c1)OCO2 | 115%
CCCCn1c(N(CCOC(C)=O)C(C)=O)nc2ccccc21 | 34.6%
O=Cc1c(-c2ccc(F)cc2)nc2ccccn12 | 157%
Cc1cccc(OCCNC(=S)NC(=O)c2cccnc2)c1 | 104%
Cc1ccc(C(C(=O)NCC2CCCO2)N(Cc2ccccc2)C(=O)c2ccc(-c3ccccc3)[nH]2)o1 (stereo unspecified) | 199%
COc1ccc(C(=O)Nc2cccc(C(=O)NCc3ccco3)c2)cc1 | 105%
CC(C)c1ccc(CN2CC(C(=O)Nc3ccccc3)CC2=O)cc1 (stereo unspecified) | 37.2%
Cc1cc(N=Nc2ccccc2)c(NCC(O)C(O)C(O)CO)cc1C (stereo unspecified) | 104%
O=c1c(C(c2ccccc2)c2c(O)sc3ccccc3c2=O)c(O)sc2ccccc12 | 85.5%
CCC(C)(NC(=O)CNC(C)=O)C(=O)NC1CCCCC1 (stereo unspecified) | 37.6%
CC(=O)Nc1ccc(S(=O)(=O)Nc2nccc(/C=C/c3ccc(Cl)cc3)n2)cc1 | 131%
Cc1onc(-c2c(F)cccc2Cl)c1C(=O)OCn1nnc2ccccc2c1=O | 99.6%
COC(=O)c1ccccc1NC(=O)C1CC(=O)N(c2ccc(F)cc2)C1 (stereo unspecified) | 66.7%
CCOc1ccc(C(CC(=O)O)NC(=O)COc2ccccc2)cc1OC (stereo unspecified) | 160%

Reference: PubChem BioAssay AID1273 (Columbia University Molecular Screening Center, 2008)
